# Library compounds against nucleic acid targets

Calls as published in the ROBIN set (doi:10.1002/anie.202211358).

Oligonucleotides screened, 5′ to 3′:
PreQ1: PreQ1 riboswitch RNA pseudoknot, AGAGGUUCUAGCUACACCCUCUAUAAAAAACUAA. From B. subtilis. Hit rate about 0.7% of about 24,000 compounds.
SAM-II: SAM-II riboswitch RNA pseudoknot, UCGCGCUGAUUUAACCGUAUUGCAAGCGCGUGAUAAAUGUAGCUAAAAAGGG. Hit rate about 1% of about 21,000 compounds.
TPP: TPP riboswitch RNA three-way junction, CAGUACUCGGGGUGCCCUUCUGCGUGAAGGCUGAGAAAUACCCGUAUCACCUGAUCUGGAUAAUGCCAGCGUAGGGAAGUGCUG. Hit rate about 0.7% of about 24,000 compounds.

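Each compound is printed as two spots on a slide made to bind it covalently, so it has no test concentration; the read-out is fluorescence of the bound, labelled oligonucleotide. For the PreQ1, TPP and SAM-II riboswitches the laboratory earlier reported (doi:10.1038/s41467-019-09493-3) 1 µM RNA, 2 h, and a rule that included a mean Z-score above 3 (spot signal-to-noise against the whole library), a score well above that on a control array, and duplicate spots agreeing (coefficient of variation under 100). The data file gives only the calls; its cut-offs may differ, and compounds hitting several targets are kept. A missing hit is not proof of no binding, and a hit is not a measured affinity.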 A compound is marked hit if it was called a hit and none if it was screened but was not. Compounds were drawn at random from those tested, without regard to their results. A dash means that no call is listed here.

| structure | PreQ1 | SAM-II | TPP |
|---|---|---|---|
| `N=C(NOC(=O)c1ccccc1)C(Cc1ccccc1)C(=O)NOC(=O)c1ccccc1` (stereo unspecified) | none | none | none |
| `COc1cc(C2C(C#N)=C(N)Oc3cc(O)ccc32)cc(Br)c1OC` (stereo unspecified) | none | none | none |
| `CC(C)=CCN1C(=O)[C@H]2CC[C@@H]1CN(C(=O)c1ccnc(N)c1)C2` | none | none | none |
| `Nc1ccc(C(=O)Nc2ccc(Nc3ccncc3)cc2)cc1` | none | none | hit |
| `Cc1c[nH]c(SCc2ccc(Cl)cc2Cl)nc1=O` | none | none | none |
| `CCC[C@@H]1CN(C(=O)Cc2ccc(CO)cc2)C[C@H]1C(=O)O` | none | none | none |
| `CC(c1cc2ccccc2s1)N(O)C(N)=O` (stereo unspecified) | none | none | none |
| `N#Cc1cnc2nc(C(F)(F)F)nn2c1N` | none | none | none |
| `CCc1csc(CNc2nc(-c3cccnc3)nc3c2CNC3)n1` | none | none | none |
| `CN1CCN(c2cccc(Nc3nc4c(-c5ccc(S(C)(=O)=O)cc5)cccn4n3)c2)CC1` | none | none | none |
| `COC(=O)[C@H]1C[C@@H](O)CCN1S(=O)(=O)Cc1ccccc1Cl` | none | none | none |
| `CC(C)CC(O)C(=O)N1CCn2nc(C(=O)Nc3ccccc3)cc2C1` (stereo unspecified) | none | none | none |
| `CC(COc1ccccc1)NCc1ccc2c(c1)n(C)c(=O)n2C` (stereo unspecified) | none | none | none |
| `C[C@@H]1O[C@@H](O[C@@H]2C=C3CC[C@@H]4[C@@H](CC[C@]5(C)[C@H](c6ccc(=O)oc6)CC[C@@]45O)[C@@]3(C)CC2)[C@H](O)[C@H](O)[C@H]1O` | none | none | none |
| `Nc1nc(CCNc2nccc(N3CCN[C@H]4CS(=O)(=O)C[C@H]43)n2)cs1` | none | none | none |
| `Cc1cc(C(=O)N2CCCC(c3[nH]ncc3Cc3ccccc3)C2)nc(N)n1` (stereo unspecified) | none | none | none |
| `Cc1c(NC(=O)NCCNc2cccnc2)cccc1C(=O)NC(C)(C)C` | none | none | none |
| `Cc1ccc(-c2nc3cccc(C)n3c2Nc2ccc3c(c2)OCCO3)s1` | none | none | none |
| `O=C(c1cc(C(F)(F)F)n[nH]1)N(CCO)CC12CC3CC(CC(C3)C1)C2` | none | none | none |
| `CN(C)CCNc1cc(-c2ccccc2CO)c2cc[nH]c2n1` | hit | none | none |
| `CC1C(C#N)=C(N)OC2=C1C(=O)CCC2` (stereo unspecified) | none | none | none |
| `N[C@H](Cc1ccccc1)C(=O)N1CCCN(c2ccc(F)cc2)CC1` | none | none | none |
| `O=C(CCc1cc2n(n1)CCCNC2)NCc1nccn1Cc1ccccc1` | none | none | none |
| `COC(=O)c1cc(NC2=NS(=O)(=O)C(c3ccc(C)cc3)=C2C)cc(C(=O)OC)c1` | none | - | none |
| `Nc1ccc(C(=O)N2CCCCC2c2ccc(F)cc2)cn1` (stereo unspecified) | none | none | none |
| `Cc1ccc(Cl)cc1-n1nnc(C(=O)NC2CC(C)(C)NC(C)(C)C2)c1C` | none | none | none |
| `CCCC(=O)N1c2ccccc2C(Nc2ccccc2)CC1C` (stereo unspecified) | none | none | none |
| `COc1ccc(CCNC(=O)N2CCC3(CCNCC3)C2)cc1` | none | none | none |
| `c1nc(Nc2ccc3c(c2)OCO3)c2nc3n(c2n1)CCCCC3` | none | - | none |
| `Nc1nnnn1NCc1ccccc1F` | none | none | none |
| `NC(=O)c1ccc(CN2CCN(C(=O)c3cn[nH]c3)CC(O)C2)cc1` (stereo unspecified) | none | none | none |
| `CCC(CO)N(Cc1ccco1)C(=O)CSc1nnc(C)s1` (stereo unspecified) | none | none | none |
| `COCCOC(=O)C1=C(N)Oc2c(oc(CO)cc2=O)C1c1ccc(Cl)cc1` (stereo unspecified) | none | none | none |
| `Cc1cccc2nc(CNC(=O)C3CC4(CCNCC4)CN3)cn12` (stereo unspecified) | none | none | none |
| `COc1cc(-c2ccccc2)nc2ccc(N)cc12` | none | none | none |
| `COCCNc1oc(-c2ccccc2)nc1S(=O)(=O)c1ccccc1` | none | - | none |
| `O=C1C(CCC(O)c2ccc(F)cc2)C(c2ccc(O)cc2)N1c1ccc(F)cc1` (stereo unspecified) | none | none | none |
| `Fc1ccc(Nc2c3c(nc4nncn24)CCC3)cc1` | none | - | none |
| `C=C(C)COc1cccc(CNCCN2CCNC2=O)c1` | none | none | none |
| `Cc1ccc(C(=O)N2CCN(C(=O)c3nonc3N)CC2)cc1` | none | - | none |
| `c1ccc2c(c1)c(NC1CCCCCCC1)nn1nnnc21` | none | none | none |
| `Cc1ccc(SCCN(C)C(=O)c2cc(N)ccn2)cc1` | none | none | none |
| `CCc1c(C)nc2ncnn2c1Nc1ccc(N2CCN(C(=O)c3ccco3)CC2)c(Cl)c1` | none | none | none |
| `Cc1cc2oc(=O)cc(CNCCc3ccccn3)c2cc1C` | none | none | none |
| `COc1ccc(-c2c(C)nn(Cc3ccccc3)c2N)cc1OC` | none | none | none |
| `CC(=O)c1ccc(Nc2cc(C)nc3nc(-c4ccc(Cl)cc4)nn23)cc1` | none | - | none |
| `Cc1nc(C)c(-c2csc(Nc3cccc(C(F)(F)F)c3)n2)s1` | none | hit | none |
| `COCC(O)CSc1[nH]c(C)nc1[N+](=O)[O-]` (stereo unspecified) | none | none | none |
| `COc1ccccc1Nc1nc(N)nc(CSc2nnc(C)s2)n1` | none | none | none |
| `COc1ccc(CNc2nc(-c3ccc(OC)cc3)cc(C(F)(F)F)n2)cc1` | none | none | none |
| `CCOC(=O)c1ccc(NC2c3ccccc3C(=O)N2Cc2ccc3c(c2)OCO3)cc1` (stereo unspecified) | none | none | none |
| `CCc1ccc(CN2C[C@H](CO)C[C@H](CN3CCOCC3)C2)o1` | none | none | none |
| `COc1c[nH]c(C(=O)NCC(CO)Cc2ccsc2)cc1=O` (stereo unspecified) | none | none | none |
| `Cc1ccc(NC2C=CS(=O)(=O)C2)cc1` (stereo unspecified) | none | none | none |